Measurements as given in US11680082B2, “Conjugates of montelukast and peptides” (ENLITISA (SHANGHAI) PHARMACEUTICAL CO., LTD, priority 2018, dated 2023).
At least one peptide structure holds a part that was inferred or is arguable (an end, a ring closure or a residue). Some compounds share one wording; it may come from a single statement. Non-standard residues stand in square brackets, D forms with d. Residues, ends and D or L forms follow the SMILES beside them. *: point of attachment. X2 = CC(C)(O)c1ccccc1CC[C@@H](SCC1(CC(=O)*)CC1)c1cccc(/C=C/c2ccc3ccc(Cl)cc3n2)c1; X1 = C=C(C)c1ccccc1CC[C@@H](SCC1(CC(=O)*)CC1)c1cccc(/C=C/c2ccc3ccc(Cl)cc3n2)c1; Dopa = N[C@@H](Cc1ccc(O)c(O)c1)C(=O)O; Hyp = O=C(O)[C@@H]1C[C@@H](O)CN1

Columns and labels:
[1] = test system: full thickness skin wound; experiment: Acute wound model II; assay type: in vivo, C57BL/6 mice; settings: topical once daily Day 0 to Day 7
Method: A similar experiment with essentially the same protocol to that described in Example 6 above was carried out on 6 to 8 week-old male C57BL/6 mice, EMS skin biopsy punch with a 12 mm diameter was used to make two round wounds on the midline of the back. The two circles were tangential to each other and the skin between the circles was cut along the upper and lower tangents. Scissors were used to trim the wound. The wound was an oval shape. […] The model group was given same amount of normal saline. [table]

[2] = test system: full thickness skin wound; experiment: Acute wound model I; assay type: in vivo, C57BL/6 mice; settings: lower dose, Day 4
Method: 6-8 weeks old male C57BL/6 mice were supplied by Changzhou Cvens Experimental Animal Co. Ltd. Prior to any experiments being conducted, mice were housed under standardized conditions (at a constant temperature or 22±2° C., with alternating 12 hour periods of light and darkness), and were fed on a standard mouse diet with water, for about a week.
General anesthesia was induced using intraperitoneal 3% chloral hydrate (Sinopharm Chemical Reagent Co., Ltd.; 1 mL/10 g of body weight). The hair on the back was shaved by a baby hair shaver and depilated with cream. The skin area was wiped and sterilized with 75% alcohol twice.
EMS skin biopsy punch (Electron Microscopy Sciences, P.O. Box 550, 1560 Industry Road, Hatfield, Pa. 19440) with an 18 mm diameter was used to make a round wound on the midline of the back. Full thickness skin was removed, and the depth reached the fascia. The wounds left open without suture.
Different drugs were administrated topically at 50 μL/wound, once daily from Day 0 to Day 7. The model group was given same amount of normal saline.
Compound B was obtained as a powder from GL Biochem, and was prepared as described in Example 2 above). Ala-Lys-Pro-Ser-Tyr-Hyp-Hyp-Thr-DOPA-Lys (Compound 2; SEQ ID No: 4) was obtained as a powder from GL Biochem, and was prepared essentially as described in Example 2 above, but without coupling montelukast at the end. […]

CysLTR1 = molecular target: T1, CysLTR1 (Homo sapiens, UniProt Q9Y271); experiment: In vitro CysLTR1 FLIPR antagonist test; assay type: cell-based; settings: for level of affinity to CysLTR1: from Table 15
T1 construct: expressed in transfected cells; host or cells: HEK293
T1 sequence (Q9Y271 1-337): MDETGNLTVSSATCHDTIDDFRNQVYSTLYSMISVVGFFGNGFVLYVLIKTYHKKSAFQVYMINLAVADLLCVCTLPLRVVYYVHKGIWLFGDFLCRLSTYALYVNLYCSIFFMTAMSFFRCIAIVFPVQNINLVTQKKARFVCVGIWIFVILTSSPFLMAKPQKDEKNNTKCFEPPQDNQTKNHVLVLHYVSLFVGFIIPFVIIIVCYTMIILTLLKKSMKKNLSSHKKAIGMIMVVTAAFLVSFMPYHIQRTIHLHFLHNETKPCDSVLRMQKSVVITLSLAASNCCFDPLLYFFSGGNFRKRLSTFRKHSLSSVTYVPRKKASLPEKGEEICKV

[3] = test system: bleomycin-induced lung fibrosis; experiment: Idiopathic pulmonary fibrosis (IPF) model in rats (bleomycin); assay type: in vivo, SD rats; settings: 28 days; for lung edema / lung fibrosis, pathological changes: 2 mg/kg inhalation; for lung fibrosis, pathological changes: compared with pirfenidone; for Lung coefficient (%): compounds 2 mg/kg inhalation, pirfenidone 240 mg/kg gavage, lung wet weight/rat weight×1000; for Masson evaluation Mean / HE evaluation Mean: score; for Masson evaluation Mean: collagen deposition in pulmonary interstitium; for HE evaluation Mean: sum of degree of fibrosis and inflammation
Method: 60 adult SD rats (30 male, 30 female) were purchased from Zhejiang Experimental Animal Center, China. Animals were housed at between 21 and 26° C. and at between 40 and 70% relative humidity with free access to food and water.
The rats were anaesthetized and placed on an operating table in the supine position, to expose the trachea. Bleomycin (5 mg/kg, Bleomycin Hydrochloride for Injection, Haizheng Pfizer Pharmaceutical Co., Ltd.) and saline solution were injected into the trachea through the gap between the tracheal cartilage rings.
The sham-operation group was given an equal volume of normal saline instead of bleomycin. The rats were lifted vertically immediately after administration and were rotated to allow bleomycin to evenly disperse.
Once the rats had recovered, after approximately 7 days, they were administrated different drugs according to the model plan. 6.5 mg of test compounds of the invention in powdered form was accurately dissolved in 5 mL saline to make a 1.3 mg/mL solution. 0.15 mL of the solution was atomized and inhaled by each rat. Inhalation was carried out once a day.
For the pirfenidone group, 12 pirfenidone capsules (Beijing Contini Pharmaceutical Co., Ltd., Beijing, China; 100 mg) were opened and the contents were fully suspended in 25 mL of 0.5% CMC-Na solution to obtain 48 mg/mL suspension. The dosage of pirfenidone was 1.0 mL/200 g in rats, i.e. 240 mg/kg, and was given by oral gavage.
After 28 days of administration, rats were anesthetized by intraperitoneal injection of chloral hydrate and then sacrificed. The thoracic cavity was quickly opened and whole lung tissue was removed. The lung wet weight was weighed, and the lung coefficient was calculated (lung wet weight/rat weight×1000) and are shown in Table 18 below.
The right bronchus was ligated, and the left lung was perfused with formalin solution in vitro. The left lung was cut and fixed in formalin solution for pathological examination. The remaining tissue was stored in a refrigerator at −80° C. for later use.
The fixed lung tissue was embedded in paraffin and sequential 4 μm sections were stained with haematoxylin-eosin (HE) and modified Masson's trichrome. Fibrotic lung injury was assessed morphologically by semiquantitative parameters. All morphological changes were scored according to the severity of damages. The scores were given as 1-4 according to light, mild, moderate and severe degree, respectively. No lesion was scored as 0. Evaluation from HE stained sections were the sum of degree of fibrosis and inflammation. Evaluation from Masson stained sections were the degree of collagen deposition in pulmonary interstitium.

fever, cough, runny nose = experiment: Clinical Example XII, fever relief; assay type: in vivo, human; settings: two hours after third dose
allergic conjunctivitis = experiment: Clinical example, allergic conjunctivitis; assay type: in vivo, human
ulcerative colitis = experiment: Clinical example, ulcerative colitis; assay type: in vivo, human; settings: 2 g hydrogel 0.5 mg/g anal once daily, second day; before more than 20 time a day
[4] = test system: LPS-induced acute lung injury; experiment: Lipopolysaccharide-induced lung injury; assay type: in vivo, BALB/c male mice

## C=C(C)c1ccccc1CC[C@@H](SCC1(CC(=O)NCCCC[C@H](NC(=O)[C@H](Cc2ccc(O)c(O)c2)NC(=O)[C@@H](NC(=O)[C@@H]2C[C@@H](O)CN2C(=O)[C@@H]2C[C@@H](O)CN2C(=O)[C@H](Cc2ccc(O)cc2)NC(=O)[C@H](CO)NC(=O)[C@@H]2CCCN2C(=O)[C@H](CCCCN)NC(=O)[C@H](C)N)[C@@H](C)O)C(=O)O)CC1)c1cccc(/C=C/c2ccc3ccc(Cl)cc3n2)c1 [Compound B, Ala-Lys-Pro-Ser-Tyr-Hyp-Hyp-Thr-DOPA-Lys(Montelukast Styrene)] (H-AKPSY[Hyp][Hyp]T[Dopa]K(X1)-OH)
[1]
  unhealed wound rate: comparable effects on promoting the wound healing
[2]
  Hyp content in wound tissue: show effects at early stage

## C=C(C)c1ccccc1CC[C@@H](SCC1(CC(=O)NCCCC[C@H](NC(=O)[C@H](Cc2ccc(O)cc2)NC(=O)[C@@H](NC(=O)[C@@H]2C[C@@H](O)CN2C(=O)[C@@H]2C[C@@H](O)CN2C(=O)[C@H](Cc2ccc(O)cc2)NC(=O)[C@H](CO)NC(=O)[C@@H]2CCCN2C(=O)[C@H](CCCCNC(=O)CC2(CS[C@H](CCc3ccccc3C(=C)C)c3cccc(/C=C/c4ccc5ccc(Cl)cc5n4)c3)CC2)NC(=O)[C@H](C)N)[C@@H](C)O)C(=O)O)CC1)c1cccc(/C=C/c2ccc3ccc(Cl)cc3n2)c1 [Compound D, Ala-Lys(montelukast styrene)-Pro-Ser-Tyr-Hyp-Hyp-Thr-Tyr-Lys(Montelukast Styrene)] (H-AK(X1)PSY[Hyp][Hyp]TYK(X1)-OH)
[1]
  unhealed wound rate: comparable effects on promoting the wound healing

## C[C@H](NC(=O)CC1(CS[C@H](CCc2ccccc2C(C)(C)O)c2cccc(/C=C/c3ccc4ccc(Cl)cc4n3)c2)CC1)C(=O)N[C@@H](CCCCN)C(=O)N1CCC[C@H]1C(=O)N[C@@H](CO)C(=O)N[C@@H](Cc1ccc(O)cc1)C(=O)N1C[C@H](O)C[C@H]1C(=O)N1C[C@H](O)C[C@H]1C(=O)N[C@H](C(=O)N[C@@H](Cc1ccc(O)cc1)C(=O)N[C@@H](CCCCN)C(=O)O)[C@@H](C)O [Compound E, Montelukast-Ala-Lys-Pro-Ser-Tyr-Hyp-Hyp-Thr-Tyr-Lys] (X2-AKPSY[Hyp][Hyp]TYK-OH)
CysLTR1; from Table 14
  affinity to CysLTR1 relative to Compound A: 5 times
[3]
  lung edema: reduce lung edema caused by bleomycin induction
  lung fibrosis, pathological changes: prevent bleomycin-induced lung fibrosis
  Lung coefficient (%): 9.462 ± 1.123 ‰ (mg/g)
  Masson evaluation Mean: 1.86
  HE evaluation Mean: 4.29
fever, cough, runny nose
  runny nose: their nose had stopped running

## C[C@H](NC(=O)CC1(CS[C@H](CCc2ccccc2C(C)(C)O)c2cccc(/C=C/c3ccc4ccc(Cl)cc4n3)c2)CC1)C(=O)N[C@@H](CCCCN)C(=O)N1CCC[C@H]1C(=O)N[C@@H](CO)C(=O)N[C@@H](Cc1ccc(O)cc1)C(=O)N1C[C@H](O)C[C@H]1C(=O)N[C@H](C(=O)N[C@@H](Cc1ccc(O)cc1)C(=O)N1C[C@H](O)C[C@H]1C(=O)N[C@@H](CCCCN)C(=O)O)[C@@H](C)O [Compound G, Montelukast-Ala-Lys-Pro-Ser-Tyr-Hyp-Thr-Tyr-Hyp-Lys] (X2-AKPSY[Hyp]TY[Hyp]K-OH)
CysLTR1
  level of affinity to CysLTR1: same level of affinity to CysLTR1
Allergic conjunctivitis; 0.5 mg/mL saline spray to each eye
  itchy eyes: relief from itchy eyes after one treatment
Allergic conjunctivitis; spray 2 to 3 times per day for 7 days
  recovery of all symptoms: Full recovery of all symptoms took place within a week
Ulcerative colitis
  diarrhea frequency: 5-6 times daily
[4]; 10, 2 and 0.4 mg/kg inhalation
  dose dependence of reduction of inflammatory cytokines: dose dependent efficacy in reducing inflammatory cytokines
[4]; LPS-induced acute lung injury
  potency relative to Compound A: about 5 times

## C=C(C)c1ccccc1CC[C@@H](SCC1(CC(=O)N[C@@H](C)C(=O)N[C@@H](CCCCN)C(=O)N2CCC[C@H]2C(=O)N[C@@H](CO)C(=O)N[C@@H](Cc2ccc(O)cc2)C(=O)N2C[C@H](O)C[C@H]2C(=O)N[C@H](C(=O)N[C@@H](Cc2ccc(O)cc2)C(=O)N2C[C@H](O)C[C@H]2C(=O)N[C@@H](CCCCN)C(=O)O)[C@@H](C)O)CC1)c1cccc(/C=C/c2ccc3ccc(Cl)cc3n2)c1 [Compound H, Montelukast Styrene-Ala-Lys-Pro-Ser-Tyr-Hyp-Thr-Tyr-Hyp-Lys] (X1-AKPSY[Hyp]TY[Hyp]K-OH)
CysLTR1
  level of affinity to CysLTR1: same level of affinity to CysLTR1
[3]
  lung edema: reduce lung edema caused by bleomycin induction
  lung fibrosis, pathological changes: prevent bleomycin-induced lung fibrosis
  Lung coefficient (%): 9.825 ± 0.647 ‰ (mg/g)
  Masson evaluation Mean: 1.88
  HE evaluation Mean: 4.00
